Experimental data reported in the supplement of paper PMC6411743.
± gives the standard deviation of the averaged measurements. The list shows a part of the results, in another mix than the full data. Small differences around the control level are noise.

Chains of the proteins cited; added tags and fusions are not shown. Lines headed by an entry give the natural chain unless they say otherwise; changes in a name come on top.
UniProt Q8IWA4: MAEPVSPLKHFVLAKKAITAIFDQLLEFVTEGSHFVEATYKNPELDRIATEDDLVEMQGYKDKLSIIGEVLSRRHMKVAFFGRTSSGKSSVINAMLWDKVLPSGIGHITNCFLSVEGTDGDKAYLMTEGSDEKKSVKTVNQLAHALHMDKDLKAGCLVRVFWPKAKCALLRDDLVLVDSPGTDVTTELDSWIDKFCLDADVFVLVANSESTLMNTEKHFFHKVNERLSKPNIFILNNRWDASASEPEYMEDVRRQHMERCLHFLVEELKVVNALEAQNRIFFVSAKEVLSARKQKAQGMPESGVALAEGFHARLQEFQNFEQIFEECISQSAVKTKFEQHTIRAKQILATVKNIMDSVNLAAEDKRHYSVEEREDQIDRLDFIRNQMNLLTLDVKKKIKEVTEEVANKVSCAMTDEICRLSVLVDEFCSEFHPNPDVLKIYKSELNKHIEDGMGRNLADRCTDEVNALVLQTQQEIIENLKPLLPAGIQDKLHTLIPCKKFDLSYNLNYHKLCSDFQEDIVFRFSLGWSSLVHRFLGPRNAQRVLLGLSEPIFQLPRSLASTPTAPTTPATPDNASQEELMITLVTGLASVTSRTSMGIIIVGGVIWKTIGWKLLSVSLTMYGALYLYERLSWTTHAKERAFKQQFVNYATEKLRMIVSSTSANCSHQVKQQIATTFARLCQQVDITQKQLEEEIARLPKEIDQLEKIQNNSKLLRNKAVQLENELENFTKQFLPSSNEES
UniProt Q9NZ72: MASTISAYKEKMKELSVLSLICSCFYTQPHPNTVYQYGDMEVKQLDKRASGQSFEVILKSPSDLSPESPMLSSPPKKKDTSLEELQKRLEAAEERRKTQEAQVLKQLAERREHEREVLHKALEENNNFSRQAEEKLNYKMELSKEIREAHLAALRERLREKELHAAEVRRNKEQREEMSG
UniProt Q99550: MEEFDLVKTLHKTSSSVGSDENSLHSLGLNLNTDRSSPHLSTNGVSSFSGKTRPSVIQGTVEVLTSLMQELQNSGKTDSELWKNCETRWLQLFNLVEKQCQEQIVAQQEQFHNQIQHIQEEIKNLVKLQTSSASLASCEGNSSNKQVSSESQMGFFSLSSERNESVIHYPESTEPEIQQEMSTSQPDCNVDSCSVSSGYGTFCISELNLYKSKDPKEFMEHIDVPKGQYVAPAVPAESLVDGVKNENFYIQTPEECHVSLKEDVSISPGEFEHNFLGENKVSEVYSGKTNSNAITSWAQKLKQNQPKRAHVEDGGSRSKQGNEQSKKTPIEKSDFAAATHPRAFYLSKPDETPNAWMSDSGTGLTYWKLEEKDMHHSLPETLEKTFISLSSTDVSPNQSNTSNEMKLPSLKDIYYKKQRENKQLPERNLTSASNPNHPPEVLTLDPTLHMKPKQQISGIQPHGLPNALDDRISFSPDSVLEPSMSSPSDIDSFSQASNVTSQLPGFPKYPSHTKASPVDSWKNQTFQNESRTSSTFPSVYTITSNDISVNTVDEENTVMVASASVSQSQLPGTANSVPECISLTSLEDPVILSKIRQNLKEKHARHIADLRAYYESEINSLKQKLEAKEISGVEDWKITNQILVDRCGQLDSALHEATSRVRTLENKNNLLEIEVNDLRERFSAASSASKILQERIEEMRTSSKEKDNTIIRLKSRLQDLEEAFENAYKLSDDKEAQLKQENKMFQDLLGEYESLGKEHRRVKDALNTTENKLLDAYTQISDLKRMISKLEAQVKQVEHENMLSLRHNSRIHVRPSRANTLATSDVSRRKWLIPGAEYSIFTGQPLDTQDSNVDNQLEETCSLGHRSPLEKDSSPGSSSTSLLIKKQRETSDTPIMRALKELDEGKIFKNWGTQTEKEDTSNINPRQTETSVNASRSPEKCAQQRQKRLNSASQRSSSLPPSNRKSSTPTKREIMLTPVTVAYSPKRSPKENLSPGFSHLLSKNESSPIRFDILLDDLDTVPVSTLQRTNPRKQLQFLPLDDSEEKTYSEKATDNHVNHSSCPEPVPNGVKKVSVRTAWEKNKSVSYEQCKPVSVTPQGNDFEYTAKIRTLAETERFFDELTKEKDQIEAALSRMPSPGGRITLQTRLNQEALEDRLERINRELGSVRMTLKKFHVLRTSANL
UniProt O95299, whole entry: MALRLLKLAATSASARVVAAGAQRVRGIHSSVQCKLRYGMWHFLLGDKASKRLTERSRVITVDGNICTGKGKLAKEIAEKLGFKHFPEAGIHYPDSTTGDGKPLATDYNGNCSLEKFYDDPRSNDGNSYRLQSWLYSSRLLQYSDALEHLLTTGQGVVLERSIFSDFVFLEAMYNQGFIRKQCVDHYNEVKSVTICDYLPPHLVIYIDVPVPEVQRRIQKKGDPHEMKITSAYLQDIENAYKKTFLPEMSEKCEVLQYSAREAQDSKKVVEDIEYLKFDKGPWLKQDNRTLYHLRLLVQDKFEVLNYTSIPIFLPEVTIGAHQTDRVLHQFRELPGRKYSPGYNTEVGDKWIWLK
UniProt A8MW92: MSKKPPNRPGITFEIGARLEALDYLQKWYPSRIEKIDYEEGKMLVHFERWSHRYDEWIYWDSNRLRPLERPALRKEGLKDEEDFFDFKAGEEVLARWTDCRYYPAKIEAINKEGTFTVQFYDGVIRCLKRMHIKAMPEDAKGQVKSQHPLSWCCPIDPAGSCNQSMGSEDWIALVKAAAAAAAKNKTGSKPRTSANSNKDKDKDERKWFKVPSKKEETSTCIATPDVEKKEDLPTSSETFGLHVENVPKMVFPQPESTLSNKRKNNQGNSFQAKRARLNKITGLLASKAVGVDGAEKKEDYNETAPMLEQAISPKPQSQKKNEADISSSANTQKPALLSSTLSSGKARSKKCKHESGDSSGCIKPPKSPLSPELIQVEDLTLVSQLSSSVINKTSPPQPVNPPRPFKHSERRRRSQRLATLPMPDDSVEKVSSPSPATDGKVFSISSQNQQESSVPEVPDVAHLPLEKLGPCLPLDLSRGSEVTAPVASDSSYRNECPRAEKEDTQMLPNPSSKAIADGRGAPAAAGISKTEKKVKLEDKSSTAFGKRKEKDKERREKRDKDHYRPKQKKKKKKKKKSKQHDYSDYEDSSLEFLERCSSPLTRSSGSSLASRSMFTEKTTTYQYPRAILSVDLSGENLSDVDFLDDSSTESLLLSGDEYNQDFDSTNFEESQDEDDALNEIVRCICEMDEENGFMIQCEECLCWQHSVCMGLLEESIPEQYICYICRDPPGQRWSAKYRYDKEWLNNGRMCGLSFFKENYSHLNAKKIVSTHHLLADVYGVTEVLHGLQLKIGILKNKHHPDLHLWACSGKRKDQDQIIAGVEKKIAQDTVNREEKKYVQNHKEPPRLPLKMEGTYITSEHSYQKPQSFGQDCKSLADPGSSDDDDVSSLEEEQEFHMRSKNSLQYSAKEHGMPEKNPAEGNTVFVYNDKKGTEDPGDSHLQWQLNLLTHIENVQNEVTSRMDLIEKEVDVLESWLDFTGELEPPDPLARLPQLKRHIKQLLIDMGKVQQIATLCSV
UniProt Q8N5P1: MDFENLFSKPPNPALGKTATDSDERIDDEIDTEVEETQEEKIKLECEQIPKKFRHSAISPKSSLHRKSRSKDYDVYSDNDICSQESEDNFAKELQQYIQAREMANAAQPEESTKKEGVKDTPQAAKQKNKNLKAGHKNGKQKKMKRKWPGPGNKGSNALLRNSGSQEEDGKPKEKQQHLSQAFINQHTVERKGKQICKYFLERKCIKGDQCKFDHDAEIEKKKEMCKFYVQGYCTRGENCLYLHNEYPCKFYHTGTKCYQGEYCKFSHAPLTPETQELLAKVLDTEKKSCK
UniProt O75955: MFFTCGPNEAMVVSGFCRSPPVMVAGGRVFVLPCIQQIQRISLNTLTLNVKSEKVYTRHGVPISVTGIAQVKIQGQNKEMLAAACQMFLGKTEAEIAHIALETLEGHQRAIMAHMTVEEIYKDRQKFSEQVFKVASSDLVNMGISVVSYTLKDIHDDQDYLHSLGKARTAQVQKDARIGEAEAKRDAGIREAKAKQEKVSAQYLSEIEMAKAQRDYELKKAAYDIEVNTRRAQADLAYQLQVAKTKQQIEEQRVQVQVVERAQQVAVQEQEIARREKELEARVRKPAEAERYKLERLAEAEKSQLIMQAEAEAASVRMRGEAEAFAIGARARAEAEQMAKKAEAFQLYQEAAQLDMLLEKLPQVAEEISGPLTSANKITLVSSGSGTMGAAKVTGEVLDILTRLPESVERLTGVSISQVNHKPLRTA
UniProt P28370, whole entry: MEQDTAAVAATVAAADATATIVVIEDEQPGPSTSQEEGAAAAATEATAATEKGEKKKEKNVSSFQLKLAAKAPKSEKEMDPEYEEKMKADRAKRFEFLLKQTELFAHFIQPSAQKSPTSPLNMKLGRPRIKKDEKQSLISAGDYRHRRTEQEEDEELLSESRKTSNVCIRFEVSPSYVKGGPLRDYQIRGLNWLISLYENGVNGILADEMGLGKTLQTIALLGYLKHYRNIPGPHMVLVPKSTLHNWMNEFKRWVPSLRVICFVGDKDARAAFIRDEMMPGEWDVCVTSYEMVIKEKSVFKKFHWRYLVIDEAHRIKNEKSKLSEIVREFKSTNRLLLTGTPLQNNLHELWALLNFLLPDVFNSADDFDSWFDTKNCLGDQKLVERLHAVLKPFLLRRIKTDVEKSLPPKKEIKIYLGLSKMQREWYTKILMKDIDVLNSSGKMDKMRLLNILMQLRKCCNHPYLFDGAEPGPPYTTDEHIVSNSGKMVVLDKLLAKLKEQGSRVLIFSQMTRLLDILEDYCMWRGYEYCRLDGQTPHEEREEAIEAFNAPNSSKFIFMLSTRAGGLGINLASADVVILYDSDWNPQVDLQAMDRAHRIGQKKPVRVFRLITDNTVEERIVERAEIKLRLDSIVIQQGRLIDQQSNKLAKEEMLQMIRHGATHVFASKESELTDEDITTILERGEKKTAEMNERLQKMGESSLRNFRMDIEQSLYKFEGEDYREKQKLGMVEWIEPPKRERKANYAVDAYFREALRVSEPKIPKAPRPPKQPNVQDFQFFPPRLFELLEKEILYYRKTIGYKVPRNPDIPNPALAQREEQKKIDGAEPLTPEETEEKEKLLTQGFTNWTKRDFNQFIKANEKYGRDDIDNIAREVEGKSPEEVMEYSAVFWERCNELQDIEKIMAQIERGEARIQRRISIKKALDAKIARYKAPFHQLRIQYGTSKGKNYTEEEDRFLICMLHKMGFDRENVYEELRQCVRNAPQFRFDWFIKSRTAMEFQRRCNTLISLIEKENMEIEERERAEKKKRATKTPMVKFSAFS
UniProt Q5JUR7: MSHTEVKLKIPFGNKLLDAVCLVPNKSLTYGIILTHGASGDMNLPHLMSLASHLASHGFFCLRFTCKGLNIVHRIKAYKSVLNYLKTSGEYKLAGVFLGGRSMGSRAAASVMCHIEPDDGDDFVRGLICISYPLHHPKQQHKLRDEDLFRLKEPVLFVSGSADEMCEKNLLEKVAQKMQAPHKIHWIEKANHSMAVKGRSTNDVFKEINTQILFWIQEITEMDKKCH
UniProt Q9NR56: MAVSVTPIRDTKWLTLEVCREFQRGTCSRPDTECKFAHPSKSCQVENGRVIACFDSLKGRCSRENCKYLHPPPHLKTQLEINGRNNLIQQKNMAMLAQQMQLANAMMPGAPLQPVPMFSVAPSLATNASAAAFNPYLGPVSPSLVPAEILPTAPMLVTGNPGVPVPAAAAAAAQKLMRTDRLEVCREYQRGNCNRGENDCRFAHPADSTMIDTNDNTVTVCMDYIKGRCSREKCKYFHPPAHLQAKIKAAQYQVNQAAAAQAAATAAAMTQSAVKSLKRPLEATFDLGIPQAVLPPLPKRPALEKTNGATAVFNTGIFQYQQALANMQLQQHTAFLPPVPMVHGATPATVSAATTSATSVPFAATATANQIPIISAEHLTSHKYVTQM
UniProt Q96B45: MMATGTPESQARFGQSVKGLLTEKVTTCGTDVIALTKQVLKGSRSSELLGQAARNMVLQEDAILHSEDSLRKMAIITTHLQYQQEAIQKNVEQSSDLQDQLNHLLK
UniProt Q99836, whole entry: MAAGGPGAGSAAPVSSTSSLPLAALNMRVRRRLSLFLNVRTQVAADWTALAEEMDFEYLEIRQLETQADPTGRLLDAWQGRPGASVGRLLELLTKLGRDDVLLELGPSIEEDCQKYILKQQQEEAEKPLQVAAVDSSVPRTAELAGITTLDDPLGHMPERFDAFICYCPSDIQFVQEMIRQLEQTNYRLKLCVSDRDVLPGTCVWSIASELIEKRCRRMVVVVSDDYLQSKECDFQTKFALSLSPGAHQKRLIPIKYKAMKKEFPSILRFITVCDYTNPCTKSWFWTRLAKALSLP
UniProt Q9Y3B3: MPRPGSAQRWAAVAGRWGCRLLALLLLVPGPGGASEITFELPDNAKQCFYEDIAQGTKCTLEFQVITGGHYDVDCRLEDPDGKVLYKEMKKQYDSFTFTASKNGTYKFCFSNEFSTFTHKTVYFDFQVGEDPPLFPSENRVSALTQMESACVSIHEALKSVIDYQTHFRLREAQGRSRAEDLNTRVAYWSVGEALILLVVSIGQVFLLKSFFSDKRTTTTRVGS

Compound: Nc1ncnc2c1ncn2[C@@H]1O[C@H](COP(=O)(O)OP(=O)(O)NP(=O)(O)O)[C@@H](O)[C@H]1O [adenylyl imidodiphosphate]
Assay: NP40-soluble protein abundance relative to vehicle (solubility fold change) (ratio); higher = more soluble protein in presence of AMP-PNP
Procedure, shortened: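 Eight concentrations, 0.1 to 10 mM, were tested on Jurkat crude lysate for 10 min at room temperature and then 3 min at 37 °C, in three independent experiments. The lysate was solubilised with 0.8% NP40 and benzonase, ultracentrifuged, and the supernatant TMT-labelled for LC-MS/MS. Each value is the fold change against the detergent-processed vehicle in its own replicate, from vsn-normalised intensities.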

In the case of A0A0C4DFN1|Q8IWA4 (UniProt Q8IWA4), the NP40-soluble protein abundance (concentration: 0.1mM) is reported as 0.991 ± 0.036 and the NP40-soluble protein abundance (concentration: 0.5mM) is reported as 0.997 ± 0.043.
“A0A0A0MSI2|B3KPJ4 and related entries (UniProt Q8IXK0)” showed an NP40-soluble protein abundance (concentration: 0.1mM) of 0.998 ± 0.03 and an NP40-soluble protein abundance (concentration: 0.5mM) of 1.01 ± 0.026.
Target “A0A0D9SF54|A0A0D9SGF6|Q13813 and related entries (UniProt Q13813)” has an NP40-soluble protein abundance (concentration: 0.1mM) of 0.976 ± 0.022 and an NP40-soluble protein abundance (concentration: 0.5mM) of 1.03 ± 0.026.
In the case of “A0A0A0MRF6|Q99996 and related entries (UniProt Q99996)”, the NP40-soluble protein abundance (concentration: 0.1mM) is reported as 1.02 ± 0.016 and the NP40-soluble protein abundance (concentration: 0.5mM) is reported as 1 ± 0.043.
“A0A0C4DG17|C9J9K3 and related entries (UniProt P08865)” gave an NP40-soluble protein abundance (concentration: 0.1mM) of 1.07 ± 0.043 and an NP40-soluble protein abundance (concentration: 0.5mM) of 1.033 ± 0.009.
Work on “A0A0J9YW36|Q9NZ72 and related entries (UniProt Q9NZ72)” yielded an NP40-soluble protein abundance (concentration: 0.1mM) of 0.969 ± 0.021 and an NP40-soluble protein abundance (concentration: 0.5mM) of 0.981 ± 0.029.
“A0A087X1N3|O75818 and related entries (UniProt O75818)” gave an NP40-soluble protein abundance (concentration: 0.1mM) of 1.02 ± 0.022 and an NP40-soluble protein abundance (concentration: 0.5mM) of 0.978 ± 0.063.
For “A0A0A0MSG2|J3KNW4 and related entries (UniProt Q14192)”, the NP40-soluble protein abundance (concentration: 0.1mM) was 0.995 ± 0.014 and the NP40-soluble protein abundance (concentration: 0.5mM) was 0.984 ± 0.013.
“A0A0A0MTD1|E7EPX0 and related entries (UniProt Q9NUL3)” gave an NP40-soluble protein abundance (concentration: 0.1mM) of 1.031 ± 0.0043 and an NP40-soluble protein abundance (concentration: 0.5mM) of 1.04 ± 0.013.
With “A0A0A0MTP3|Q99550 and related entries (UniProt Q99550)” the NP40-soluble protein abundance (concentration: 0.1mM) was 1.006 ± 0.0073 and the NP40-soluble protein abundance (concentration: 0.5mM) was 0.96 ± 0.047.
Work on “A0A096LP25|Q2M2I8 and related entries (UniProt Q2M2I8)” yielded an NP40-soluble protein abundance (concentration: 0.1mM) of 1.05 ± 0.048 and an NP40-soluble protein abundance (concentration: 0.5mM) of 1.04 ± 0.046.
“A0A087WXC5|E7ESZ7 and related entries (UniProt O95299)” was tested, and the NP40-soluble protein abundance (concentration: 0.1mM) was 0.9952 ± 0.0078 and the NP40-soluble protein abundance (concentration: 0.5mM) was 1.01 ± 0.048.
“A0A0A0MQS0|A8MW92 and related entries (UniProt A8MW92)” showed an NP40-soluble protein abundance (concentration: 0.1mM) of 0.942 ± 0.036 and an NP40-soluble protein abundance (concentration: 0.5mM) of 0.977 ± 0.058.
A0A0C4DFM1|Q92544 (UniProt Q92544) was tested, and the NP40-soluble protein abundance (concentration: 0.1mM) was 1.02 ± 0.032 and the NP40-soluble protein abundance (concentration: 0.5mM) was 0.988 ± 0.066.
A0A0C4DGZ1|Q8N5P1 (UniProt Q8N5P1) showed an NP40-soluble protein abundance (concentration: 0.1mM) of 0.9805 ± 0.0034 and an NP40-soluble protein abundance (concentration: 0.5mM) of 1.01 ± 0.097.
“A0A0A0MSS3|Q5T6P1 and related entries (UniProt Q8ND83)” was tested, and the NP40-soluble protein abundance (concentration: 0.1mM) was 1 ± 0.011 and the NP40-soluble protein abundance (concentration: 0.5mM) was 0.997 ± 0.029.
In the case of A0A0B4J2E5|Q15269 (UniProt Q15269), the NP40-soluble protein abundance (concentration: 0.1mM) is reported as 1.04 ± 0.024 and the NP40-soluble protein abundance (concentration: 0.5mM) is reported as 1.03 ± 0.054.
Work on “A0A087WXM6|A0A0A6YYL6|J3KRX5 and related entries (UniProt P18621)” yielded an NP40-soluble protein abundance (concentration: 0.1mM) of 1.04 ± 0.032 and an NP40-soluble protein abundance (concentration: 0.5mM) of 1.004 ± 0.0069.
For “A0A0A0MQU0|Q9BV38 and related entries (UniProt Q9BV38)”, the NP40-soluble protein abundance (concentration: 0.1mM) was 1.05 ± 0.074 and the NP40-soluble protein abundance (concentration: 0.5mM) was 0.984 ± 0.064.
Work on A0A0C4DGA6|Q14527 (UniProt Q14527) yielded an NP40-soluble protein abundance (concentration: 0.1mM) of 1.003 ± 0.005 and an NP40-soluble protein abundance (concentration: 0.5mM) of 0.994 ± 0.045.
“A0A140T9R1|A2ABJ5 and related entries (UniProt O75955)” was tested, and the NP40-soluble protein abundance (concentration: 0.1mM) was 1.06 ± 0.062 and the NP40-soluble protein abundance (concentration: 0.5mM) was 0.979 ± 0.012.
A0A0C4DFV0|Q9H469 (UniProt Q9H469) was tested, and the NP40-soluble protein abundance (concentration: 0.1mM) was 0.9786 ± 0.0029 and the NP40-soluble protein abundance (concentration: 0.5mM) was 0.985 ± 0.017.
Target A0A0C4DFY7|Q6UWW8 (UniProt Q6UWW8) has an NP40-soluble protein abundance (concentration: 0.1mM) of 1.02 ± 0.041 and an NP40-soluble protein abundance (concentration: 0.5mM) of 0.985 ± 0.021.
“A0A0A0MRP6|B7ZLQ5 and related entries (UniProt P28370)” was tested, and the NP40-soluble protein abundance (concentration: 0.1mM) was 1.03 ± 0.086 and the NP40-soluble protein abundance (concentration: 0.5mM) was 1 ± 0.046.
With A0A0C4DFW4|Q5JUR7 (UniProt Q5JUR7) the NP40-soluble protein abundance (concentration: 0.1mM) was 1 ± 0.026 and the NP40-soluble protein abundance (concentration: 0.5mM) was 1.01 ± 0.033.
“A0A0U1RQG6|A0A0U1RQM7|A0A0U1RR06|C9JYH8 and related entries (UniProt Q9Y484)” was tested, and the NP40-soluble protein abundance (concentration: 0.1mM) was 0.9919 ± 0.0079 and the NP40-soluble protein abundance (concentration: 0.5mM) was 0.979 ± 0.045.
“A0A0A0MQX8|Q9NR56 and related entries (UniProt Q9NR56)” was tested, and the NP40-soluble protein abundance (concentration: 0.1mM) was 0.966 ± 0.021 and the NP40-soluble protein abundance (concentration: 0.5mM) was 1 ± 0.06.
Target A0A0B4J1R7|Q96B45 (UniProt Q96B45) has an NP40-soluble protein abundance (concentration: 0.1mM) of 1.013 ± 0.01 and an NP40-soluble protein abundance (concentration: 0.5mM) of 0.999 ± 0.021.
Work on A0A0C4DGC9|Q8TDR2 (UniProt Q8TDR2) yielded an NP40-soluble protein abundance (concentration: 0.1mM) of 0.9978 ± 0.0093 and an NP40-soluble protein abundance (concentration: 0.5mM) of 1.02 ± 0.025.
“A0A0A0MS70|A0A0A0MST0|H0Y4G9 and related entries (UniProt Q99836)” gave an NP40-soluble protein abundance (concentration: 0.1mM) of 1.04 ± 0.024 and an NP40-soluble protein abundance (concentration: 0.5mM) of 0.968 ± 0.018.
With “A0A0A6YYA0|Q86XR7-2|Q9Y3B3 and related entries (UniProt Q9Y3B3+Q86XR7)” the NP40-soluble protein abundance (concentration: 0.1mM) was 0.9861 ± 0.0035 and the NP40-soluble protein abundance (concentration: 0.5mM) was 0.973 ± 0.051.
In the case of A0A0A0MQS1|Q53H96 (UniProt Q53H96), the NP40-soluble protein abundance (concentration: 0.1mM) is reported as 0.999 ± 0.031 and the NP40-soluble protein abundance (concentration: 0.5mM) is reported as 0.995 ± 0.019.
